According to PMC5166568 (Organic & Biomolecular Chemistry, 2016):

Test: general procedure: Fmoc solid-phase peptide synthesis; Rink Amide MBHA Resin (Novabiochem, 200–400 mesh, 0.60 mmol g^–1 loading); PyBOP/DIPEA
Conditions: whole synthesis; for isolated yield: scale of the general procedure 0.15 mmol

Row | Substance | isolated mass | isolated yield
1 | Cys-Tat peptide | 24 mg | 40%
2 | Tat-GYKC peptide | 20 mg | 33%
3 | azidopeptide 13 | 24 mg | 55%
